Results deposited as PubChem BioAssay AID493246 (Drosophila RNAi Screening Center, 2011)
In all, the deposit lists about 21,000 reagents; shown is a random part of those that have a named target and a result. In the full data, 429 (2%) got an active call. 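Values are raw and not normalised between plates; calls rest on per-plate z-scores that were not deposited.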 Not stated in the record: the amount of reagent, the time to read-out.

- Aim: 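Genes fly cells need to grow and stay alive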 (primary screen)
- Cells: Drosophila Kc and S2R+ cells
- Reagent: long dsRNA against Drosophila genes
- Measured: 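Cell number per well after knock-down, printed as raw plate values; calls were based on per-plate z-scores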
- Reading the numbers: Kc cell number and S2R+ cell number: higher = more cells remaining
- Hit rule: 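Active when the per-plate z-score of cell number is 3 or more in the direction of fewer cells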

PGRP-LC [DRSC08980] scored Kc cell number, rep 1 = 1.46e6; Kc cell number, rep 2 = 1.50e6; S2R+ cell number, rep 1 = 1.17e6; S2R+ cell number, rep 2 = 1.34e6; inactive.
PGRP-LC [DRSC10416] scored Kc cell number, rep 1 = 1.59e6; Kc cell number, rep 2 = 1.71e6; S2R+ cell number, rep 1 = 1.28e6; S2R+ cell number, rep 2 = 1.44e6; inactive.
Against PGRP-LC [DRSC10417] the deposit lists Kc cell number, rep 1 = 1.65e6; Kc cell number, rep 2 = 1.59e6; S2R+ cell number, rep 1 = 1.17e6; S2R+ cell number, rep 2 = 1.46e6; inactive.
Dh31 [DRSC02196] showed Kc cell number, rep 1 = 1.70e6; Kc cell number, rep 2 = 1.71e6; S2R+ cell number, rep 1 = 1.25e6; S2R+ cell number, rep 2 = 1.46e6; inactive.
For CG2854 [DRSC18595], the values are Kc cell number, rep 1 = 1.49e6; Kc cell number, rep 2 = 1.43e6; S2R+ cell number, rep 1 = 9.97e5; S2R+ cell number, rep 2 = 1.13e6; inactive.

A run of entries from the list above, as a working copy:
Dh31 [DRSC02196] → Kc cell number, rep 1: 1.70e6; Kc cell number, rep 2: 1.71e6; S2R+ cell number, rep 1: 1.25e6; S2R+ cell number, rep 2: 1.46e6; Outcome: inactive
CG2854 [DRSC18595] → Kc cell number, rep 1: 1.49e6; Kc cell number, rep 2: 1.43e6; S2R+ cell number, rep 1: 9.97e5; S2R+ cell number, rep 2: 1.13e6; Outcome: inactive

Additional results follow:
Glg1 [DRSC11815] gave Kc cell number, rep 1 = 1.48e6; Kc cell number, rep 2 = 1.52e6; S2R+ cell number, rep 1 = 1.28e6; S2R+ cell number, rep 2 = 1.35e6; inactive.
With knock-down of Glg1 [DRSC11816], the record shows Kc cell number, rep 1 = 1.61e6; Kc cell number, rep 2 = 1.87e6; S2R+ cell number, rep 1 = 1.24e6; S2R+ cell number, rep 2 = 1.33e6; inactive.
Depletion of Glg1 [DRSC11817] gave: Kc cell number, rep 1 = 1.68e6; Kc cell number, rep 2 = 1.75e6; S2R+ cell number, rep 1 = 1.44e6; S2R+ cell number, rep 2 = 1.52e6; inactive.
Silencing of Atg8b [DRSC14501] resulted in: Kc cell number, rep 1 = 1.45e6; Kc cell number, rep 2 = 1.48e6; S2R+ cell number, rep 1 = 9.59e5; S2R+ cell number, rep 2 = 1.17e6; inactive.
With knock-down of Mst57Dc [DRSC16745], the screen gave Kc cell number, rep 1 = 1.62e6; Kc cell number, rep 2 = 1.74e6; S2R+ cell number, rep 1 = 1.01e6; S2R+ cell number, rep 2 = 1.09e6; inactive.
Efa6 [DRSC13569] scored Kc cell number, rep 1 = 1.43e6; Kc cell number, rep 2 = 1.45e6; S2R+ cell number, rep 1 = 1.03e6; S2R+ cell number, rep 2 = 1.13e6; inactive.
With knock-down of Efa6 [DRSC15312] the results were Kc cell number, rep 1 = 1.52e6; Kc cell number, rep 2 = 1.53e6; S2R+ cell number, rep 1 = 7.80e5; S2R+ cell number, rep 2 = 8.99e5; inactive.
Against Efa6 [DRSC16141], the values are Kc cell number, rep 1 = 1.58e6; Kc cell number, rep 2 = 1.52e6; S2R+ cell number, rep 1 = 9.04e5; S2R+ cell number, rep 2 = 1.06e6; inactive.
